Measured values reported in PubChem BioAssay AID248 (DTP/NCI, 2004).
The list is a part of this screen's results and no random one: it gathers tests that were run many times, whatever their T/C, doses with no T/C, and many T/C values between a quarter and a half above the control. Other doses and runs of a compound stand elsewhere. T/C: endpoint of the treated group in % of that of the vehicle group. Some entries give survivors of the animals treated and no T/C: the source files T/C as zero there, which appears to mark a toxic dose or a test without result, not a measured value. Some survivor counts are full or nearly so, which does not show that the dose was tolerated: the source hardly ever lists a survival T/C far under the control, and the zero likely stands for such cases as well. Survivors were counted at the toxicity check, usually on the fifth day, unless a day is given; later deaths do not show. Schedules are NCI's codes, taken here to give the interval after Q, in days (D) or hours (H), and the number of doses after X. Some structures stand for samples that the source files as different forms (salt, stereo form or complex); doses refer to the form tested. Some entries hold several experiments; their values stand side by side, smallest first. Some schedule codes hold Z or #, which are not explained here. Counts like (3×) give the number of equal values in this list. Where survival is the endpoint, this PubChem deposit counts one and a half times the control or more as active, and values a quarter to a half above the control carry no call in these data; other NCI protocols may use other cut-offs. Some T/C values carry the count of animals alive at the toxicity check (mostly the fifth day); where none is given, no animal had died by that day.

Tested on: L1210 leukemia ip in BDF1 mice, survival T/C
Assay: NCI In Vivo Anticancer Drug Screen. Data for tumor model L1210 Leukemia (intraperitoneal) in B6D2F1 (BDF1) mice
Conditions: T/C endpoint: mean survival time, higher T/C = longer survival
[1] = dose: 60.0 mg/kg/injection, schedule: Q01DX001 (ip), vehicle: carboxymethylcellulose (CMC)
[2] = dose: 100.0 mg/kg/injection, schedule: Q01DX009 (ip), vehicle: saline
[3] = dose: 200.0 mg/kg/injection, schedule: Q01DX009 (ip), vehicle: saline
[4] = dose: 400.0 mg/kg/injection, schedule: Q04DX003 (ip), vehicle: saline
[5] = dose: 100.0 mg/kg/injection, schedule: Q01DX001 (ip), vehicle: saline with Tween-80
[6] = dose: 200.0 mg/kg/injection, schedule: Q01DX001 (ip), vehicle: saline with Tween-80
[7] = dose: 400.0 mg/kg/injection, schedule: Q01DX001 (ip), vehicle: saline with Tween-80
[8] = dose: 400.0 mg/kg/injection, schedule: Q04DX003 (ip), vehicle: saline with Tween-80
[9] = dose: 400.0 mg/kg/injection, schedule: Q04DX003 (ip), vehicle: Klucel (hydroxypropylcellulose) (HPC)

In the case of `N#Cc1ccccc1NC(=O)N(CCCl)N=O`, the T/C (dose: 4.0 mg/kg/injection, schedule: Q01DX001 (ip), vehicle: carboxymethylcellulose (CMC)) is reported as 139 % of control, the T/C (dose: 8.0 mg/kg/injection, schedule: Q01DX001 (ip), vehicle: carboxymethylcellulose (CMC)) is reported as 133 % of control and the T/C (dose: 15.0 mg/kg/injection, schedule: Q01DX001 (ip), vehicle: carboxymethylcellulose (CMC)) is reported as 134 % of control. The T/C (dose: 20.0 mg/kg/injection, schedule: Q01DX001 (ip), vehicle: carboxymethylcellulose (CMC)) was 135 % of control, the T/C (dose: 30.0 mg/kg/injection, schedule: Q01DX001 (ip), vehicle: carboxymethylcellulose (CMC), evaluated on day 30) was 134 % of control and the T/C (dose: 30.0 mg/kg/injection, schedule: Q01DX001 (ip), vehicle: carboxymethylcellulose (CMC), run until all animals had died) was 132 % of control. For the same compound, the T/C (dose: 45.0 mg/kg/injection, schedule: Q01DX001 (ip), vehicle: carboxymethylcellulose (CMC)) was 126 % of control, the survivor count (dose: 45.0 mg/kg/injection, schedule: Q01DX009 (ip), vehicle: carboxymethylcellulose (CMC)) was 4 of 6 and the survivor count [1] was 4 of 6. The survivor count (dose: 75.0 mg/kg/injection, schedule: Q01DX001 (ip), vehicle: carboxymethylcellulose (CMC)) was 5 of 6, the survivor count (dose: 150.0 mg/kg/injection, schedule: Q01DX001 (ip), vehicle: carboxymethylcellulose (CMC)) was 0 of 6 and the survivor count (dose: 300.0 mg/kg/injection, schedule: Q01DX001 (ip), vehicle: carboxymethylcellulose (CMC)) was 0 of 6.

For `CN(C)C`, the survivor count [2] was 6 of 6, the survivor count [3] was 6 of 6 and the survivor count (dose: 400.0 mg/kg/injection, schedule: Q04DX002 (ip), vehicle: saline) was 1 of 3. The survivor count [4] was 0 of 6.

`O=[As](O)(CC(O)COc1ccc(Cl)cc1Cl)c1ccc(Cl)cc1` (configuration not stated) was tested, and the survivor count (dose: 25.0 mg/kg/injection, schedule: Q01DX001 (ip), vehicle: saline with Tween-80) was 0 of 6, the survivor count (dose: 50.0 mg/kg/injection, schedule: Q01DX001 (ip), vehicle: saline with Tween-80) was 0 of 6 and the survivor count [5] was 0 of 6. The survivor count [6] was 0 of 6 and the survivor count [7] was 0 of 6.

In the case of `COc1cc(OC)c(/C=C/c2cnc3ccccc3n2)c(OC)c1`, the survivor count (dose: 12.5 mg/kg/injection, schedule: Q04DX002 (ip), vehicle: saline with Tween-80) is reported as 3 of 3 and the survivor count (dose: 25.0 mg/kg/injection, schedule: Q04DX002 (ip), vehicle: saline with Tween-80) is reported as 3 of 3.

`CCCCN(CCCC)CCNc1ccc(Cl)c2oc3cc(C)ccc3c(=O)c12` was tested, and the survivor count (dose: 100.0 mg/kg/injection, schedule: Q04DX003 (ip), vehicle: saline with Tween-80) was 6 of 6, the survivor count (dose: 200.0 mg/kg/injection, schedule: Q04DX003 (ip), vehicle: saline with Tween-80) was 6 of 6 and the survivor count [8] was 5 of 6.

For `[Cl][Cu][Cl]`, the survivor count (dose: 25.0 mg/kg/injection, schedule: Q04DX003 (ip), vehicle: saline) was 0 of 6, the survivor count (dose: 100.0 mg/kg/injection, schedule: Q04DX003 (ip), vehicle: saline) was 0 of 6 and the survivor count (dose: 200.0 mg/kg/injection, schedule: Q04DX003 (ip), vehicle: saline) was 0 of 6. For the same compound, the survivor count [4] was 0 of 6.

`Cc1c2ccccc2cc2[n+]1CCc1ccccc1-2` was tested, and the survivor count [7] was 0 of 6.

In the case of `CCOC(=O)COC(CC[P+](c1ccccc1)(c1ccccc1)c1ccccc1)(C(=O)c1ccccc1)c1ccccc1` (configuration not stated), the survivor count [5] is reported as 0 of 6 (2×), the survivor count [6] is reported as 0 of 6 (2×) and the survivor count [7] is reported as 0 of 6 (2×).

With `COc1ccnc2ccc(C)c([N+](=O)[O-])c12` the survivor count (dose: 400.0 mg/kg/injection, schedule: Q04DX003 (ip), vehicle: other) was 2 of 6.

With `CCN=C(NCC)Nc1ccc(NC(=O)Nc2ccc(NC(=O)Nc3ccc(NC(=NCC)NCC)cc3)cc2)cc1` the survivor count (dose: 16.0 mg/kg/injection, schedule: Q01DX Z (ip), vehicle: water) was 0 of 6 and the survivor count (dose: 32.0 mg/kg/injection, schedule: Q01DX Z (ip), vehicle: water) was 0 of 6.

With `C[CH2][Sn](/[CH]=C/C=C/OC)([CH2]C)[CH2]C` the survivor count (dose: 25.0 mg/kg/injection, schedule: Q01DX009 (ip), vehicle: saline) was 0 of 3, the survivor count (dose: 50.0 mg/kg/injection, schedule: Q01DX009 (ip), vehicle: saline) was 1 of 3 and the survivor count [2] was 0 of 3 and 1 of 3. The survivor count [3] was 0 of 3.

For `Cc1ccccc1Nc1n[nH]c(=S)s1`, the survivor count [8] was 0 of 6.

With `O=C1OCc2cccc3cccc1c23` the survivor count [8] was 1 of 3.

In the case of `COc1ccc(Cl)cc1N1C(=O)C2C(C1=O)C1(Cl)C(Cl)=C(Cl)C2(Cl)C1(Cl)Cl` (configuration not stated), the survivor count (dose: 200.0 mg/kg/injection, schedule: Q01DX009 (ip), vehicle: Klucel (hydroxypropylcellulose) (HPC)) is reported as 2 of 6 and the survivor count [9] is reported as 2 of 6.

For `O=NN(CCCl)C(=O)NC1CCCCCCCCCCC1`, the T/C (dose: 18.0 mg/kg/injection, schedule: Q01DX001 (ip), vehicle: carboxymethylcellulose (CMC)) was 131 % of control, the T/C (dose: 26.0 mg/kg/injection, schedule: Q01DX001 (ip), vehicle: carboxymethylcellulose (CMC)) was 138 % of control and the T/C (dose: 40.0 mg/kg/injection, schedule: Q01DX001 (ip), vehicle: carboxymethylcellulose (CMC)) was 149 % of control. For the same compound, the T/C [1] was 138 % of control, the T/C (dose: 93.0 mg/kg/injection, schedule: Q01DX001 (ip), vehicle: carboxymethylcellulose (CMC)) was 148 % of control and the T/C (dose: 125.0 mg/kg/injection, schedule: Q01DX001 (ip), vehicle: carboxymethylcellulose (CMC)) was 140 % of control. For the same compound, the T/C (dose: 298.0 mg/kg/injection, schedule: Q01DX001 (ip), vehicle: other) was 138 % of control and the T/C (dose: 1750.0 mg/kg/injection, schedule: Q01DX001 (ip), vehicle: other) was 135 % of control.

`O=Nc1ccc(O)c2ncccc12` was tested, and the survivor count [9] was 0 of 6.

`CN(C)N=Nc1ccc([N+](=O)[O-])cc1C(N)=O` was tested, and the T/C (dose: 200.0 mg/kg/injection, schedule: Q01DX007 (ip), vehicle: saline with Tween-80) was 147 % of control.

For `CCOC(=O)c1c(-c2ccccc2)csc1N`, the survivor count [8] was 6 of 6.

For `[O]=[V]([OH])([OH])[OH]`, the survivor count (dose: 100.0 mg/kg/injection, schedule: Q01DX001 (ip), vehicle: saline) was 1 of 4, the survivor count (dose: 128.0 mg/kg/injection, schedule: Q01DX015 (ip), vehicle: saline) was 0 of 6 and the survivor count (dose: 256.0 mg/kg/injection, schedule: Q01DX015 (ip), vehicle: saline) was 0 of 6.

In the case of `O=C(Cl)OCCOCCOC(=O)Cl`, the survivor count [2] is reported as 0 of 6.

With `CCCN(CCC)CC(C)=O` the survivor count (dose: 400.0 mg/kg/injection, schedule: Q01DX009 (ip), vehicle: saline) was 0 of 6 and the survivor count [4] was 1 of 6.

In the case of `NC(CSS(=O)(=O)O)=NCCc1ccccc1`, the survivor count (dose: 25.0 mg/kg/injection, schedule: Q04DX002 (ip), vehicle: Klucel (hydroxypropylcellulose) (HPC)) is reported as 0 of 3, the survivor count (dose: 50.0 mg/kg/injection, schedule: Q04DX002 (ip), vehicle: Klucel (hydroxypropylcellulose) (HPC)) is reported as 0 of 3 and the survivor count (dose: 100.0 mg/kg/injection, schedule: Q04DX002 (ip), vehicle: Klucel (hydroxypropylcellulose) (HPC)) is reported as 0 of 3. The survivor count (dose: 200.0 mg/kg/injection, schedule: Q04DX002 (ip), vehicle: Klucel (hydroxypropylcellulose) (HPC)) was 0 of 3 and the survivor count (dose: 400.0 mg/kg/injection, schedule: Q04DX002 (ip), vehicle: Klucel (hydroxypropylcellulose) (HPC)) was 0 of 3.

In the case of `O=NN(CCCl)C(=O)NC12CC3CC(CC(C3)C1)C2`, the T/C (dose: 16.0 mg/kg/injection, schedule: Q01DX001 (ip), vehicle: carboxymethylcellulose (CMC)) is reported as 139 % of control, the T/C (dose: 31.0 mg/kg/injection, schedule: Q01DX001 (ip), vehicle: carboxymethylcellulose (CMC)) is reported as 148 % of control and the T/C (dose: 250.0 mg/kg/injection, schedule: Q01DX001 (ip), vehicle: carboxymethylcellulose (CMC)) is reported as 133 % of control [5 of 6 alive]. The survivor count (dose: 375.0 mg/kg/injection, schedule: Q01DX001 (ip), vehicle: carboxymethylcellulose (CMC)) was 6 of 6 and the survivor count (dose: 500.0 mg/kg/injection, schedule: Q01DX001 (ip), vehicle: carboxymethylcellulose (CMC)) was 4 of 6.
